Measured values from patent US20170362650.
Where cells or extracts were used, other partners may take part. For some of these results: The comparison behind a weaker result is the experiment's own reference, which may not be listed here. Where a protein sequence is shown, tags need not be part of it. For some of these results: Construct, isoform or probe ends are uncertain for at least one entry. For some of these results: Negatives hold for the conditions tested.

Key:
[1] = target: T1, Max (Drosophila melanogaster) (UniProt P91664); assay: footprint; conditions: in vivo ChIP-nexus, protein in cells, protein details: endogenous, S2 cells
T1 sequence (looked up, limits assumed): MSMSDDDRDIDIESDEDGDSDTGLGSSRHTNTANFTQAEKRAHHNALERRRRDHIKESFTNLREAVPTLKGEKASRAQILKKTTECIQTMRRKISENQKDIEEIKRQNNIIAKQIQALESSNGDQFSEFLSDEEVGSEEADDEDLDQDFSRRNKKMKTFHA

[2] = target: T2, Twist (Drosophila melanogaster) (UniProt P10627); assay: footprint; conditions: in vivo ChIP-nexus, protein in cells, protein details: endogenous, 2-4 h embryos
T2 sequence (looked up, limits assumed): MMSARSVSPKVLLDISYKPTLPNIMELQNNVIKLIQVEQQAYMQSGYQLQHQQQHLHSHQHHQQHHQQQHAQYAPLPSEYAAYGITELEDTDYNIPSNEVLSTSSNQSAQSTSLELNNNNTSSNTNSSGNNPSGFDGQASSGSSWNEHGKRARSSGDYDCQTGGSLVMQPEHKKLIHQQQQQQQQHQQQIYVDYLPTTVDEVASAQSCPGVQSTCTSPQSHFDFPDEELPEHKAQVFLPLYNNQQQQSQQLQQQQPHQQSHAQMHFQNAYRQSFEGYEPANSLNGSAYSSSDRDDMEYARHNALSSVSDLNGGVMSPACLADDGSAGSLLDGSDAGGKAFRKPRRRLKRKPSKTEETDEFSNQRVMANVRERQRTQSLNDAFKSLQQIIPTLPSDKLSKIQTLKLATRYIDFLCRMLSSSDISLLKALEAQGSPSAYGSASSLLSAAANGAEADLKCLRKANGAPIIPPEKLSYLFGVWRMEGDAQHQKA

[3] = E-box variants other than CACGTG and CACATG not significantly bound

Question: Does CACGTG (double strand) [E-box CACGTG] bind ([1]; strongest E-box, boundaries 8 bp outside motif)?
Answer: Result: binds

Question: What does the source list for CATATG (double strand) [E-box CATATG]?
Answer: binding result [1, 3]: no binding; binding result ([2]; outer boundary at 11 bp dominant): binds

Question: What does the source list for CAGATG (double strand) [E-box CAGATG]?
Answer: binding result [1, 3]: no binding; binding result ([2]; inner boundary at 2 bp more prominent): binds

Question: Which results are given for CACATG (double strand) [E-box CACATG]?
Answer: binding result ([1]; smaller but otherwise identical footprint): binds more weakly; binding result ([2]; outer boundary at 11 bp dominant to lesser extent): binds
